Test results: patent US6656497B2, “Liposomal vector for active-principle” (Lipogel, priority 1997, dated 2003)
Part of at least one peptide drawing is inferred or uncertain, most often the ends.

Experiments:
[1] = cited from earlier work
[2] = system: Wistar Ico rats; assay: Calcaemia after oral administration of free or LGS-encapsulated calcitonin; format: in vivo
[3] = system: Wistar Ico rats; assay: Phosphataemia after oral administration of free or LGS-encapsulated calcitonin; format: in vivo; conditions: 330 IU/kg, colorimetric assay, significant in the Fisher test

**Q.** For `CC(C)C[C@H](NC(=O)[C@H](CCCCN)NC(=O)CNC(=O)[C@H](CC(C)C)NC(=O)[C@@H](NC(=O)[C@@H]1CSSC[C@H](N)C(=O)N[C@@H](CO)C(=O)N[C@@H](CC(N)=O)C(=O)N[C@@H](CC(C)C)C(=O)N[C@@H](CO)C(=O)N[C@@H]([C@@H](C)O)C(=O)N1)C(C)C)C(=O)N[C@@H](CO)C(=O)N[C@@H](CCC(N)=O)C(=O)N[C@@H](CCC(=O)O)C(=O)N[C@@H](CC(C)C)C(=O)N[C@@H](Cc1c[nH]cn1)C(=O)N[C@@H](CCCCN)C(=O)N[C@@H](CC(C)C)C(=O)N[C@@H](CCC(N)=O)C(=O)N[C@H](C(=O)N[C@@H](Cc1ccc(O)cc1)C(=O)N1CCC[C@H]1C(=O)N[C@@H](CCCNC(=N)N)C(=O)N[C@H](C(=O)N[C@@H](CC(N)=O)C(=O)N[C@H](C(=O)NCC(=O)N[C@@H](CO)C(=O)NCC(=O)N[C@H](C(=O)N1CCC[C@H]1C(N)=O)[C@@H](C)O)[C@@H](C)O)[C@@H](C)O)[C@@H](C)O` [free calcitonin, salmon calcitonin], which “dose at which the IV-route effect starts” value [1] is on record?
**A.** 0.9 IU

**Q.** What about the effect on calcaemia ([2]; 54 IU/rat i.e. 330 IU/kg) of the same molecule?
**A.** transient decrease in calcaemia

**Q.** And the “time at which hypocalcaemia returns to the normal level” value ([2]; 330 IU/kg)?
**A.** 90 min

**Q.** What about the effect on phosphataemia [3] of the same molecule?
**A.** hypo-phosphataemia
